Test results: the supplement of paper PMC9015667
Where a name gives a salt, the structure may show the parent alone. The list shows a part of the results. Most values come without repeats; read them as rough.

How the values were obtained:
Test in all cases: reduction in cell viability relative to untreated/vehicle; higher = more growth inhibition
Conditions in all cases: 200 nM; 72 h
M229P = test system: M229P (parental melanoma line)
M229R = test system: M229R (matched melanoma line resistant to BRAF inhibitors)
M238P = test system: M238P (parental melanoma line)
M238R = test system: M238R (matched melanoma line resistant to BRAF inhibitors)
M249P = test system: M249P (parental melanoma line)
M249R = test system: M249R (matched melanoma line resistant to BRAF inhibitors)
UACC62P = test system: UACC62P (parental melanoma line)
UACC62R = test system: UACC62R (matched melanoma line resistant to BRAF inhibitors)

Row | Compound | reduction in cell viability (M229P) | reduction in cell viability (M229R) | reduction in cell viability (M238P) | reduction in cell viability (M238R) | reduction in cell viability (M249P) | reduction in cell viability (M249R) | reduction in cell viability (UACC62P) | reduction in cell viability (UACC62R)
1 | CCOc1cc2ncc(C#N)c(Nc3ccc(OCc4ccccn4)c(Cl)c3)c2cc1NC(=O)/C=C/CN(C)C [Neratinib] | 22% | < 0% | 28.4% | 2.01% | 14.2% | 2.97% | 18.5% | 4.2%
2 | C[C@H](Cc1ccc(O)c(O)c1)[C@@H](C)Cc1ccc(O)c(O)c1 [Masoprocol] | < 0% | < 0% | < 0% | < 0% | < 0% | < 0% | < 0% | < 0%
3 | CN1CCC(COc2cnc(-c3cccc(Cn4nc(-c5cccc(C#N)c5)ccc4=O)c3)nc2)CC1 | < 0% | < 0% | < 0% | < 0% | < 0% | < 0% | < 0% | < 0%
4 | O=C(NC1CCOCC1)c1ccc(-c2cc(-c3c[nH]nc3-c3ccccn3)ccn2)cc1 | < 0% | < 0% | < 0% | < 0% | < 0% | < 0% | < 0% | < 0%
5 | CC(C)OC(=O)OCOP(=O)(CO[C@H](C)Cn1cnc2c(N)ncnc21)OCOC(=O)OC(C)C [Tenofovir disoproxil fumarate] | < 0% | < 0% | < 0% | < 0% | < 0% | < 0% | < 0% | < 0%
6 | CCCCC(CC)COC(=O)C(C#N)=C(c1ccccc1)c1ccccc1 (stereo unspecified) [2-Ethylhexyl-2-cyano-3,3-diphenylacrylate] | < 0% | < 0% | < 0% | < 0% | < 0% | 3.71% | < 0% | < 0%
7 | CC1=C(C(=O)O)N2C(=O)[C@@H](NC(=O)[C@H](N)C3=CCC=CC3)[C@H]2SC1 [Cephradine] | < 0% | < 0% | < 0% | < 0% | < 0% | < 0% | < 0% | < 0%
8 | NNc1nncc2ccccc12 [Hydralazine hydrochloride] | < 0% | < 0% | < 0% | < 0% | < 0% | < 0% | < 0% | < 0%
9 | Cc1ccc(C)c(OCCCC(C)(C)C(=O)O)c1 [Gemfibrozil] | < 0% | < 0% | < 0% | < 0% | < 0% | < 0% | < 0% | < 0%
10 | C#C[C@]1(O)CC[C@H]2[C@@H]3CCc4cc(OC)ccc4[C@H]3CC[C@@]21C [Mestranol] | < 0% | < 0% | < 0% | < 0% | < 0% | < 0% | 6.7% | < 0%
11 | CN(C)CC(C)(C)CNc1nn2c(-c3ccccc3)nnc2cc1C1CCC1 | < 0% | < 0% | < 0% | < 0% | < 0% | 4.53% | < 0% | < 0%
12 | CC(=O)NC(C)c1ccc(Oc2ccc(OC(C)C)cc2)cc1 (stereo unspecified) | < 0% | < 0% | < 0% | < 0% | < 0% | 0.22% | < 0% | < 0%
13 | O=C1NC(=O)/C(=C/c2cccc(C(F)(F)F)c2)S1 | < 0% | < 0% | < 0% | < 0% | < 0% | 0.68% | < 0% | < 0%
14 | C=C(C)[C@@H]1CC[C@]2(C)CC[C@]3(C)[C@H](CC[C@@H]4[C@@]5(C)CC[C@H](O)C(C)(C)[C@@H]5CC[C@]43C)[C@@H]12 [Lupeol] | < 0% | < 0% | < 0% | < 0% | < 0% | 2.23% | < 0% | < 0%
15 | COc1ccc([C@@H]2CC(=O)c3c(O)cc(O)cc3O2)cc1O [Hesperetin] | < 0% | < 0% | < 0% | < 0% | < 0% | < 0% | 6.47% | < 0%
16 | C#CCN[C@@H]1CCc2ccccc21 [Rasagiline mesylate] | < 0% | < 0% | < 0% | < 0% | < 0% | < 0% | < 0% | < 0%
17 | CCCNC(=O)Nc1ccc(Oc2ncnc3cc(OC)c(OC)cc23)cc1Cl | < 0% | < 0% | < 0% | < 0% | 7.95% | < 0% | 7.14% | < 0%
18 | CN1CCN(c2c(F)cc3c(=O)c(C(=O)O)cn4c3c2OCN4C)CC1 [Marbofloxacin] | < 0% | < 0% | < 0% | < 0% | < 0% | < 0% | < 0% | < 0%
19 | CNC(=O)c1cc(COc2nnc(Nc3ccc(Cl)cc3)c3ccoc23)ccn1 [Telatinib] | < 0% | < 0% | < 0% | < 0% | < 0% | < 0% | < 0% | < 0%
20 | COc1ccc2c(Oc3ccc(NC(=O)c4c(C)n(CC(C)(C)O)n(-c5ccccc5)c4=O)nc3)ccnc2c1 | < 0% | < 0% | < 0% | < 0% | < 0% | < 0% | < 0% | < 0%
21 | CC(C)(O)[C@H]1CC[C@@](C)([C@H]2[C@@H](O)C[C@@]3(C)[C@@H]4C[C@H](O[C@@H]5O[C@H](CO)[C@@H](O)[C@H](O)[C@H]5O)[C@H]5C(C)(C)[C@@H](O[C@@H]6OC[C@@H](O)[C@H](O)[C@H]6O)CC[C@@]56C[C@@]46CC[C@]23C)O1 [Astragaloside A] | < 0% | < 0% | < 0% | < 0% | < 0% | < 0% | < 0% | < 0%

Row | Compound | reduction in cell viability (M229P) | reduction in cell viability (M229R) | reduction in cell viability (M238P) | reduction in cell viability (M238R) | reduction in cell viability (M249P) | reduction in cell viability (M249R) | reduction in cell viability (UACC62P) | reduction in cell viability (UACC62R)
22 | Cn1ccc2cc3c(cc21)CCN3C(=O)Nc1cccnc1 | < 0% | < 0% | < 0% | < 0% | < 0% | < 0% | 13.7% | < 0%
23 | C[C@H]1O[C@H](O[C@H]2[C@H](O)[C@@H](O)[C@@H](O[C@H]3[C@H](O)[C@@H](O)C(O)O[C@@H]3CO)O[C@@H]2CO)[C@H](O)[C@@H](O)[C@@H]1N[C@H]1C=C(CO)[C@@H](O)[C@H](O)[C@H]1O (stereo partly specified) [Acarbose] | < 0% | 1.04% | < 0% | < 0% | < 0% | 1.22% | < 0% | < 0%
24 | Cc1ccccc1C(=O)Nc1ccc(C(=O)N2CCCC(O)c3cc(Cl)ccc32)c(C)c1 (stereo unspecified) [Tolvaptan] | < 0% | < 0% | < 0% | < 0% | < 0% | < 0% | 5.82% | < 0%
25 | CC(C)=CCC/C(C)=C/CC/C(C)=C/CSc1ccccc1C(=O)O [Salirasib] | < 0% | < 0% | < 0% | < 0% | < 0% | < 0% | < 0% | < 0%
26 | CC(=O)NCC(=O)N1[C@@H]2CC[C@H]1c1ccc(Nc3ncc(C(F)(F)F)c(NC4CCC4)n3)cc12 | 7.96% | 2.91% | 27.4% | 37.5% | 5.23% | 0.57% | 26.7% | 59.5%
27 | O=c1c(-c2ccc(O)cc2)coc2c([C@@H]3O[C@H](CO)[C@@H](O)[C@H](O)[C@H]3O)c(O)ccc12 [Puerarin] | < 0% | < 0% | < 0% | < 0% | < 0% | < 0% | 4.44% | < 0%
28 | CN(C)c1ccccc1CN1CCCN(Cc2ccccc2N(C)C)C1c1ccncc1 | < 0% | < 0% | < 0% | < 0% | < 0% | < 0% | < 0% | < 0%
29 | CCOc1cc(N)c(Cl)cc1C(=O)NCC1CN(Cc2ccc(F)cc2)CCO1 (stereo unspecified) [Mosapride citrate] | < 0% | < 0% | < 0% | < 0% | < 0% | < 0% | < 0% | < 0%
30 | Cc1cc(Nc2ncc3c(n2)N(C)C(=O)N(c2cc(NC(=O)c4cccc(C(F)(F)F)c4)ccc2C)C3)n(C)n1 [Pluripotin] | 87.8% | 61.5% | 86.9% | 85.6% | 61.6% | 66.5% | 99.1% | 89.9%
31 | O=c1cc(N2CCOCC2)oc2c(-c3cccc4c3sc3ccccc34)cccc12 | < 0% | < 0% | < 0% | < 0% | < 0% | < 0% | < 0% | < 0%
32 | CN(C)CCOC(c1ccccc1)c1ccccc1 [Diphenhydramine hydrochloride] | < 0% | < 0% | < 0% | < 0% | < 0% | < 0% | < 0% | < 0%
33 | OC(CN1CCN(c2cccc(Cl)c2)CC1)C(c1ccccc1)c1ccccc1 (stereo unspecified) | < 0% | < 0% | < 0% | < 0% | < 0% | < 0% | < 0% | < 0%
34 | O=C(O)C1CCCN(CCC=C(c2ccccc2)c2ccccc2)C1 (stereo unspecified) | < 0% | < 0% | < 0% | < 0% | < 0% | < 0% | < 0% | < 0%
35 | COc1ccc(C2=N[C@@H](c3ccc(Cl)cc3)[C@@H](c3ccc(Cl)cc3)N2C(=O)N2CCNC(=O)C2)c(OC(C)C)c1 [Nutlin-3] | < 0% | < 0% | < 0% | < 0% | < 0% | < 0% | 11.2% | 3.35%
36 | COC1=C(OC)C(=O)C(CCCCCCCCCCO)=C(C)C1=O [Idebenone] | < 0% | < 0% | < 0% | < 0% | < 0% | < 0% | < 0% | < 0%
37 | CN(Cc1cc(Br)cc(Br)c1N)C1CCCCC1 [Bromhexine hydrochloride] | < 0% | < 0% | < 0% | 3.57% | < 0% | < 0% | < 0% | < 0%
38 | CC1(C)O[C@@H]2C[C@H]3[C@@H]4CCC5=CC(=O)C=C[C@]5(C)[C@H]4[C@@H](O)C[C@]3(C)[C@]2(C(=O)CO)O1 [Desonide] | < 0% | < 0% | < 0% | < 0% | < 0% | < 0% | < 0% | < 0%
39 | COc1cc2c(Nc3ccc(NC(=O)c4ccccc4)cc3)ncnc2cc1OCCCN1CCOCC1 | < 0% | < 0% | 16.1% | < 0% | < 0% | < 0% | < 0% | 33.3%
40 | O=C(Nc1c(Cl)cncc1Cl)c1ccc(OC(F)F)c(OCC2CC2)c1 [Roflumilast] | < 0% | < 0% | < 0% | < 0% | < 0% | < 0% | < 0% | < 0%
41 | Cn1c(CNc2ccc(C(=N)N)cc2)nc2cc(C(=O)N(CCC(=O)O)c3ccccn3)ccc21 [Dabigatran] | < 0% | < 0% | < 0% | < 0% | < 0% | < 0% | < 0% | < 0%
42 | CCn1c(-c2nonc2N)nc2cnc(Oc3cccc(NC(=O)c4ccc(OCCN5CCOCC5)cc4)c3)cc21 | < 0% | 13.8% | < 0% | < 0% | < 0% | < 0% | < 0% | < 0%

3 entries from above in another layout:
O=C(O)C1CCCN(CCC=C(c2ccccc2)c2ccccc2)C1 (stereo unspecified)
  reduction in cell viability (M229P): < 0%
  reduction in cell viability (M229R): < 0%
  reduction in cell viability (M238P): < 0%
  reduction in cell viability (M238R): < 0%
  reduction in cell viability (M249P): < 0%
  reduction in cell viability (M249R): < 0%
  reduction in cell viability (UACC62P): < 0%
  reduction in cell viability (UACC62R): < 0%
COc1ccc(C2=N[C@@H](c3ccc(Cl)cc3)[C@@H](c3ccc(Cl)cc3)N2C(=O)N2CCNC(=O)C2)c(OC(C)C)c1 [Nutlin-3]
  reduction in cell viability (M229P): < 0%
  reduction in cell viability (M229R): < 0%
  reduction in cell viability (M238P): < 0%
  reduction in cell viability (M238R): < 0%
  reduction in cell viability (M249P): < 0%
  reduction in cell viability (M249R): < 0%
  reduction in cell viability (UACC62P): 11.2%
  reduction in cell viability (UACC62R): 3.35%
COC1=C(OC)C(=O)C(CCCCCCCCCCO)=C(C)C1=O [Idebenone]
  reduction in cell viability (M229P): < 0%
  reduction in cell viability (M229R): < 0%
  reduction in cell viability (M238P): < 0%
  reduction in cell viability (M238R): < 0%
  reduction in cell viability (M249P): < 0%
  reduction in cell viability (M249R): < 0%
  reduction in cell viability (UACC62P): < 0%
  reduction in cell viability (UACC62R): < 0%
